Our source for the binding signal values is paper PMC7819943, “Rice protein-binding microarrays: a tool to detect cis-acting elements near promoter regions in rice”.

Some of the results follow.

The target in the test is T1, OsSMF1 (Oryza sativa, UniProt Q6ZLB0 1-436).
T1 sequence: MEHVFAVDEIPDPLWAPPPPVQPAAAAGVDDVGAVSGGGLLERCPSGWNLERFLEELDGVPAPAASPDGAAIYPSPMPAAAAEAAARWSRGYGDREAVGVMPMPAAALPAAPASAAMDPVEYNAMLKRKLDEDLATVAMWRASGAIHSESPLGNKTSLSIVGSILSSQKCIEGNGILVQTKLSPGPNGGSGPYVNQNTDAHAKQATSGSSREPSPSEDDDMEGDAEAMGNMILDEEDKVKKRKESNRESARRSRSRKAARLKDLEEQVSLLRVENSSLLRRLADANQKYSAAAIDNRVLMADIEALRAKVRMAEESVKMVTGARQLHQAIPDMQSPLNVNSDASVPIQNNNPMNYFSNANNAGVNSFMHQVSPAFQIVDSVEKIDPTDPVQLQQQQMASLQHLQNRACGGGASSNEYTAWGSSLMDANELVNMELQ
Kind of test: protein-binding microarray (RPBM); PBS, 2% BSA, 51.3 ng/ul salmon testes DNA, 50 uM zinc acetate, 200 nM TF, 25 C, 1 h; high values mean tight binding. Conditions: protein: recombinant; tags: N-terminal polyhistidine and DsRed monomer fusion (pET32a); chain copies: 2; label: CyDye5-dUTP incorporated in the synthesized complementary strand; 3' TTTTT single-stranded linker to array surface; dsDNA, one strand shown. The method, boiled down: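 Binding signal is defined as the fluorescence intensity of each feature in arbitrary units, read on an Axon 4000B scanner. Transcription factors with N-terminal polyhistidine and DsRed fusions came from E. coli BL21-CodonPlus and were purified on Ni–NTA. They were incubated at 200 nM for 1 h at 25 °C on a custom Agilent array that had been made double-stranded with Cy5-dUTP, with 50 µM zinc acetate present, and the array was washed.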
“CGCCCCACCTCGCCGACTCAGCTCCGGTGGCGCAGGATGACGGAGTCACCTAGTGCAG”: the binding signal is 3220 fluorescence intensity (a.u.).
For the sequence “ATAGTGGGCCCGCGCTGTCACGGGCACGTGGGCGGTGCACCGGAGTCACCTAGTGCAG”, the binding signal was 5200 fluorescence intensity (a.u.).
The value for “CTAGATCTAAATTTTAGAACCACGTAAGGAGTTCATACTTCGGAGTCACCTAGTGCAG” was 3720 fluorescence intensity (a.u.); that for “TCACTCACCACTAACCGCAAAACTCAAACATCACCTATCCCGGAGTCACCTAGTGCAG” was 4040 fluorescence intensity (a.u.); that for “TTTATGGCCACAATACCTAAGGGAATATGGCACGTGGCAACGGAGTCACCTAGTGCAG” was 5400 fluorescence intensity (a.u.).
“CGAGGATTTGAGATCTGAGATGGCACGGACACTAGACAACCGGAGTCACCTAGTGCAG”: the binding signal was 3440 fluorescence intensity (a.u.).
The value for “ATACTGTCGAACAAGTTTGAGAACCTGAACAGTCGATTTGCGGAGTCACCTAGTGCAG” was 3280 fluorescence intensity (a.u.).
The value for “TGAATAATATATACGTGTATGTTCTTAGCGATCTAAACGCCGGAGTCACCTAGTGCAG” was 3390 fluorescence intensity (a.u.).
Take “TTCGAAGATGCTCATAGGGGTAGGGTTTGCGTGCGTGTGTCGGAGTCACCTAGTGCAG”: the binding signal is 3720 fluorescence intensity (a.u.).
The value for “AAGGTGACGTCAATTTTAACATGAATATGACGTCATTACTCGGAGTCACCTAGTGCAG” was 14000 fluorescence intensity (a.u.); that for “CCGTCAGTAAACCACGAGATAAATTTATTAAGCCTAATTACGGAGTCACCTAGTGCAG” was 3230 fluorescence intensity (a.u.).
The value for “CTCGCGCGCCCCGCCCGTTTCGCCTCGGCCGCCTCCTCCACGGAGTCACCTAGTGCAG” was 3940 fluorescence intensity (a.u.); that for “ATTGCGACGTTTCTTCAGGTGACGAAAAGCCTGACGAGTACGGAGTCACCTAGTGCAG” was 4120 fluorescence intensity (a.u.).
The value for “ACCTCGTTTTGCGTATCTTCTCAATCTACTCAATCCACTTCGGAGTCACCTAGTGCAG” was 15300 fluorescence intensity (a.u.); that for “GCGTAGGCCGTGTGACGGCGTGACACCACCACTGACCACCCGGAGTCACCTAGTGCAG” was 5030 fluorescence intensity (a.u.).
Turning to “GATGGGACTTAACATGCAGTTCAGGCCATATGCATTTCTGCGGAGTCACCTAGTGCAG”, the binding signal was 34000 fluorescence intensity (a.u.).
“TGTATCTAACGTGTTGCGTTGTGAATGTAGGTGAATCTGTCGGAGTCACCTAGTGCAG”: the binding signal was 4490 fluorescence intensity (a.u.).
“ATTACTTATGTTTTCACTGAAATAGCATGCCACCTAGGGACGGAGTCACCTAGTGCAG”: the binding signal was 3150 fluorescence intensity (a.u.).
The value for “TGGACACTTGGTGTTTTCATGGTTTTGTTAGTAAACTTTGCGGAGTCACCTAGTGCAG” was 36700 fluorescence intensity (a.u.); that for “TTTTGCTGACTAGGATGCCACATCATCAAAACTAGCCATGCGGAGTCACCTAGTGCAG” was 35000 fluorescence intensity (a.u.).
On to “CGAAACTGATATGGTGTACGCTGTCACCGAATACTATCTCCGGAGTCACCTAGTGCAG”, for which the binding signal is 3830 fluorescence intensity (a.u.).
“TCGGTGACGTAGTGAGTGACGCACGCTGTTGCAGTGCTCTCGGAGTCACCTAGTGCAG”: the binding signal is 4640 fluorescence intensity (a.u.).
As to “AAAAGTCAATGACGTCAGATATTTAGGGACGGAGAGTATACGGAGTCACCTAGTGCAG”, the binding signal was 9290 fluorescence intensity (a.u.).
The value for “TTTGTTATGGCTAAACGATACATCTTACTGTAGTAATTTGCGGAGTCACCTAGTGCAG” was 6840 fluorescence intensity (a.u.); that for “AGTTGTCAACTTGTGACGATGTGCGTTGCTTTTGAGTTGGCGGAGTCACCTAGTGCAG” was 4280 fluorescence intensity (a.u.).
For “AGAGGGCAATGAGACTGACGATGTCACCGATGACGATATTCGGAGTCACCTAGTGCAG”, the binding signal was 3420 fluorescence intensity (a.u.).
As to “AGAGTACAGAGGATACTCTGACTCATACTCTCTACGTCCACGGAGTCACCTAGTGCAG”, the binding signal was 7380 fluorescence intensity (a.u.).
The value for “CGCTCAATTCCGCTTTAATTTGGTGACTTGGCGATCGATCCGGAGTCACCTAGTGCAG” was 4420 fluorescence intensity (a.u.); that for “ACTCCAATGATGTGGCATTGAAGAGATCACCTGGGAGAGGCGGAGTCACCTAGTGCAG” was 8140 fluorescence intensity (a.u.).
The value for “GCCGGCTGCGTTCTTTTGAAACAAAATTTTCCCTTTGGACCGGAGTCACCTAGTGCAG” was 3860 fluorescence intensity (a.u.).
The value for “CGCCCAGCTCATGCACTGCTACCTGTATAGTACGTGTACACGGAGTCACCTAGTGCAG” was 3870 fluorescence intensity (a.u.).
Consider “GGTGAACAGTACGTCACGATATGTTAGAGGATCCTCTTCCCGGAGTCACCTAGTGCAG”, for which the binding signal was 6070 fluorescence intensity (a.u.).
Consider “GTGGAACCGCTGACACGATGTCATCTTCAGAAATGAGCAACGGAGTCACCTAGTGCAG”, for which the binding signal was 3180 fluorescence intensity (a.u.).
As to “ATAATAAACTGAGAGGAGGATAGTAATATGTACTTAGTAACGGAGTCACCTAGTGCAG”, the binding signal was 48400 fluorescence intensity (a.u.).
Take “CGAGGCGTGTGTCAGACCGCCTGTTGTCACCTAACCCACGCGGAGTCACCTAGTGCAG”: the binding signal is 3980 fluorescence intensity (a.u.).
The value for “GAGGGTACGGTACAAACTTTTATACACCGTCTGTCACGTTCGGAGTCACCTAGTGCAG” was 3150 fluorescence intensity (a.u.); that for “TCAGTCGGGATGGCGCTGTCACGCTGTCGGTTGATCGGTCCGGAGTCACCTAGTGCAG” was 3640 fluorescence intensity (a.u.).
The value for “ATTAACCCCAAACATCCTCTTACTCCTCAACTACACATCACGGAGTCACCTAGTGCAG” was 3210 fluorescence intensity (a.u.); that for “GTTCGTGGTCATCGTCACTCGCCGCTCCCCACATCCGCGCCGGAGTCACCTAGTGCAG” was 4780 fluorescence intensity (a.u.).
Regarding “GACAATTATACTTTATGACACAAAATTGAATCCACCTCATCGGAGTCACCTAGTGCAG”, the binding signal was 3410 fluorescence intensity (a.u.).
The value for “TAACTAAGACCCTCCACGCCTGTTAGTCTGTATGTCATTTCGGAGTCACCTAGTGCAG” was 3450 fluorescence intensity (a.u.).
Consider “GAGGCGTGTGGCGTGTGACGTGTGGATTCCCCTCTCCCCGCGGAGTCACCTAGTGCAG”, for which the binding signal was 9410 fluorescence intensity (a.u.).
